{"source": "paper PMC5457501", "about": "(Nature Communications, 2017)", "binders": {"B1": {"name": "PrimPol RPA-binding domain (PrimPol_(480-560)) (domain or fragment, human, UniProt Q96LW4 480-560, looked up)", "chain": "TTDEADETRSNETQNPHKPSPSRLSTGASADAVWDNGIDDAYFLEATEDAELAEAAENSLLSYNSEVDEIPDELIIEVLQE", "notes": "15N-enriched for one NMR sample; also called PrimPolRBD; RBD; source: E. coli BL21(pLysS), purified (Ni Sepharose, Q Sepharose, Superdex 75)"}}, "target": "PrimPol RPA-binding domain (PrimPol_(480-560)) (human) (UniProt Q96LW4)", "experiment": "dynamic light scattering; PrimPol RBD at 200 uM, 20 mM HEPES pH 7.5, 80 mM NaCl, 2 mM DTT, 25 C; both purified", "note": "Results are given in words; binding and its absence hold for the method and conditions named.", "data": [{"binder": "B1", "values": [{"measurement": "binding", "value": "no binding (tested: 200 uM)"}]}]}
